{"source": "patent US9586951B2", "about": "(FUJIFILM Corporation, priority 2013, dated 2017)", "note": "Some entries share one result that the patent states for a list of compounds.", "data": [{"system": "human lung cancer cell line NCI-H460 subcutaneously transplanted tumor", "assay": "Evaluation of sensitivity-enhancing effects to ionizing radiation in subcutaneously transplanted tumor of mouse", "format": "in vivo", "conditions": "Balb/c nu/nu mouse, local X-ray irradiation, intravenously once a day 3 mg/kg to 50 mg/kg, ratio to control group on test end date", "units": {"Tumor volume ratio": "%"}, "values": [{"smiles": "Cc1cnc(C(C)Nc2ccc3c(c2)Sc2cccc(-c4cc(N5CCOCC5)cc(=O)[nH]4)c2S3)cn1", "note": "(single isomer, unassigned) [Example 1-12-137-1, 6-(7-((1-(5-methylpyrazin-2-yl)ethyl)amino)thianthren-1-yl)-4-morpholinopyridin-2(1H)-one]", "Tumor volume ratio": "≤ 80"}, {"smiles": "Cc1cnc(C(C)Nc2ccc3c(c2)Sc2cccc(-c4cc(N5CCOCC5)cc(=O)[nH]4)c2S3)nc1", "note": "(single isomer, unassigned) [Example 1-12-139-1, 6-(7-((1-(5-methylpyrimidin-2-yl)ethyl)amino)thianthren-1-yl)-4-morpholinopyridin-2(1H)-one]", "Tumor volume ratio": "≤ 80"}, {"smiles": "Cc1cccc(C(CO)Nc2ccc3c(c2)Sc2cccc(-c4cc(N5CCOCC5)cc(=O)[nH]4)c2S3)n1", "note": "(single isomer, unassigned) [Example 1-12-140-2, 6-(7-((2-hydroxy-1-(6-methylpyridin-2-yl)ethyl)amino)thianthren-1-yl)-4-morpholinopyridin-2(1H)-one]", "Tumor volume ratio": "≤ 80"}, {"smiles": "Cc1ccnc(C(C)Nc2ccc3c(c2)Sc2cccc(-c4cc(N5CCOCC5)cc(=O)[nH]4)c2S3)n1", "note": "(single isomer, unassigned) [Example 1-12-144-1, 6-(7-((1-(4-methylpyrimidin-2-yl)ethyl)amino)thianthren-1-yl)-4-morpholinopyridin-2(1H)-one]", "Tumor volume ratio": "≤ 80"}, {"smiles": "CC(CN1CCOCC1)Nc1ccc2c(c1)Sc1cccc(-c3cc(N4CCOCC4)cc(=O)[nH]3)c1S2", "note": "(single isomer, unassigned) [Example 1-13-2-2, 4-morpholino-6-(7-((1-morpholinopropan-2-yl)amino)thianthren-1-yl)pyridin-2(1H)-one]", "Tumor volume ratio": "≤ 80"}, {"smiles": "CC(CN1CCN(C)CC1)Nc1ccc2c(c1)Sc1cccc(-c3cc(N4CCOCC4)cc(=O)[nH]3)c1S2", "note": "(single isomer, unassigned) [Example 1-13-3-2, 6-(7-((1-(4-methylpiperazin-1-yl)propan-2-yl)amino)thianthren-1-yl)-4-morpholinopyridin-2(1H)-one]", "Tumor volume ratio": "≤ 80"}, {"smiles": "COCC(CN1CCOCC1)Nc1ccc2c(c1)Sc1cccc(-c3cc(N4CCOCC4)cc(=O)[nH]3)c1S2", "note": "(single isomer, unassigned) [Example 1-17-1-2, 6-(7-((1-methoxy-3-morpholinopropan-2-yl)amino)thianthren-1-yl)-4-morpholinopyridin-2(1H)-one]", "Tumor volume ratio": "≤ 80"}, {"smiles": "Cc1cnc(C(CCN(C)C)Nc2ccc3c(c2)Sc2cccc(-c4cc(N5CCOCC5)cc(=O)[nH]4)c2S3)cn1", "note": "(single isomer, unassigned) [Example 1-22-12-2, 6-(7-((3-(dimethylamino)-1-(5-methylpyrazin-2-yl)propyl)amino)thianthren-1-yl)-4-morpholinopyridin-2(1H)-one]", "Tumor volume ratio": "≤ 80"}, {"smiles": "O=c1cc(N2CCOCC2)cc(-c2cccc3c2Sc2ccc(NC(CF)CN4CCOCC4)cc2S3)[nH]1", "note": "(single isomer, unassigned) [Example 1-41-1-2, 6-(7-((1-fluoro-3-morpholinopropan-2-yl)amino)thianthren-1-yl)-4-morpholinopyridin-2(1H)-one]", "Tumor volume ratio": "≤ 80"}, {"smiles": "CC(Nc1ccc2c(c1)Cc1cccc(-c3cc(N4CCOCC4)cc(=O)[nH]3)c1O2)c1nccc(CF)n1", "note": "(single isomer, unassigned) [Example 2-14-94-1, 6-(7-((1-(4-(fluoromethyl)pyrimidin-2-yl)ethyl)amino)-9H-xanthen-4-yl)-4-morpholinopyridin-2(1H)-one]", "Tumor volume ratio": "≤ 80"}, {"smiles": "Cc1cccc(CNc2ccc3c(c2)Sc2cccc(-c4cc(N5CCOCC5)cc(=O)[nH]4)c2S3)n1", "note": "[Example 1-12-2, 6-(7-(((6-Methylpyridin-2-yl)methyl)amino)thianthren-1-yl)-4-1-morpholino pyridin-2 (1H)-one]", "Tumor volume ratio": "≤ 80"}, {"smiles": "Cc1cccc(CNc2ccc3c(c2)Cc2cccc(-c4cc(N5CCOCC5)cc(=O)[nH]4)c2O3)n1", "note": "[Example 2-2-24, 6-(7-(((6-Methylpyridin-2-yl)methyl)amino)-9H-xanthen-4-yl)-4-morpholino pyridin-2(1H)-one]", "Tumor volume ratio": "≤ 80"}, {"smiles": "O=c1cc(N2CCOCC2)cc(-c2cccc3c2Oc2ccc(NCc4cccc(Cl)n4)cc2C3)[nH]1", "note": "[Example 2-14-2, 6-(7-(((6-Chloropyridin-2-yl)methyl)amino)-9H-xanthen-4-yl)-4-morpholino pyridin-2(1H)-one]", "Tumor volume ratio": "≤ 80"}, {"smiles": "COc1cncc(CN2CCC(Nc3ccc4c(c3)Cc3cccc(-c5cc(N6CCOCC6)cc(=O)[nH]5)c3O4)CC2)c1", "note": "[Example 2-28-2, 6-(7-((1-((5-Methoxypyridin-3-yl)methyl)piperidin-4-yl)amino)-9H-xanthen-4-yl)-4-morpholino pyridin-2(1H)-one]", "Tumor volume ratio": "≤ 80"}, {"smiles": "Cc1cccc(CNc2ccc3c(c2)Sc2cccc(-c4cc(N5CCOCC5)cc(=O)[nH]4)c2O3)n1", "note": "[Example 4-8-5, 6-(8-(((6-Methylpyridin-2-yl)methyl)amino)phenoxathiin-4-yl)-4-morpholino pyridin-2(1H)-one]", "Tumor volume ratio": "≤ 80"}, {"smiles": "Cc1ccnc(CNc2ccc3c(c2)Sc2cccc(-c4cc(N5CCOCC5)cc(=O)[nH]4)c2O3)c1", "note": "[Example 4-8-19, 6-(8-(((4-Methylpyridin-2-yl)methyl)amino)phenoxathiin-4-yl)-4-morpholino pyridin-2(1H)-one]", "Tumor volume ratio": "≤ 80"}, {"smiles": "Cc1ccc(CNc2ccc3c(c2)Sc2cccc(-c4cc(N5CCOCC5)cc(=O)[nH]4)c2O3)cn1", "note": "[Example 4-8-23, 6-(8-(((6-Methylpyridin-3-yl)methyl)amino)phenoxathiin-4-yl)-4-morpholino pyridin-2(1H)-one]", "Tumor volume ratio": "≤ 80"}]}]}
